The assay has as its target F1 deletion mutant of Kindlin-2 (lentiviral, pLVX-K2ΔF1-Hyg) (UniProt Q96AC1). As to the kind of experiment: co-IP; lysates of primary PCCs from KPC;K2 WT or KPC;K2 cKO mice infected with lentivirus encoding K2 WT, K2 ΔF1 or empty vector; anti-Kindlin-2 antibody; immunoblot. Background: Immunoblotting shows a protein as a band on a membrane.

Amino acid sequences for entries named in this document (tags omitted). A change or cut given only in a name is not applied to a line headed by its entry.
UniProt Q96AC1: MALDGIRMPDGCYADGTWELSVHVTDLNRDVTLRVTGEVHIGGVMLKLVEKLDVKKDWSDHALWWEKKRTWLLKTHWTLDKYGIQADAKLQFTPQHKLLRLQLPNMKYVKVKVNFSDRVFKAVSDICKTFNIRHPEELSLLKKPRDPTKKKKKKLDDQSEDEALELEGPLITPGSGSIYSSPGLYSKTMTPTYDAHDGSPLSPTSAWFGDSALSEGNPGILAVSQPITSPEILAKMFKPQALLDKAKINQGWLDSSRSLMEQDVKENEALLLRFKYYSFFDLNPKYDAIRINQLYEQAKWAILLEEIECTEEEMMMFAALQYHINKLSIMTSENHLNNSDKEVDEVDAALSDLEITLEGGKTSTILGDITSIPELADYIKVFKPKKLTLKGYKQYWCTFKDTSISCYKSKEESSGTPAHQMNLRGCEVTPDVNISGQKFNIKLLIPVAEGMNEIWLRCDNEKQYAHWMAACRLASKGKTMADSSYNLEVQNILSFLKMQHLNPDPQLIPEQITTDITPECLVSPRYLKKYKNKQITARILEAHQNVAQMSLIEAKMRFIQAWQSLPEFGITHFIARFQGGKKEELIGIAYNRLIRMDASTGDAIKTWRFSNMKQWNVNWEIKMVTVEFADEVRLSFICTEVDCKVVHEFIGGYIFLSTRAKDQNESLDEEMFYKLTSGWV
UniProt Q62167: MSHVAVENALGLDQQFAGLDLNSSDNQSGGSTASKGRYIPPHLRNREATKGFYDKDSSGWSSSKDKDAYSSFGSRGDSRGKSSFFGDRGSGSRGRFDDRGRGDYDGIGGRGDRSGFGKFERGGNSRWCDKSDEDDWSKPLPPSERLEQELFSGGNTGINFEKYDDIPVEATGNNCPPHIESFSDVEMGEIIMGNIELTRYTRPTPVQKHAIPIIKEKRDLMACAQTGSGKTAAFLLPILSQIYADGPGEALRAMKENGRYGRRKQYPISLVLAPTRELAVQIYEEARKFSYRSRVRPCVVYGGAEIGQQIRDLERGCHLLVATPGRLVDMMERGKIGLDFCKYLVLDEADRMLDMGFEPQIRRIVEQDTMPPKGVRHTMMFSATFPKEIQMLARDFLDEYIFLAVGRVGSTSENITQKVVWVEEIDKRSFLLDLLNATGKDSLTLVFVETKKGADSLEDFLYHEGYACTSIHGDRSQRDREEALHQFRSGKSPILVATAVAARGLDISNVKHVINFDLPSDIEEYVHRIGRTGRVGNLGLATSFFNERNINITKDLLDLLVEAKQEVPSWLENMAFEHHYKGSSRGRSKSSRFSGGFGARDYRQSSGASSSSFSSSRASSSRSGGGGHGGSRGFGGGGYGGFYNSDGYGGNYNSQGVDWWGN

This is an account of results in article PMC10465218.

These are yes or no findings as the source states them, for the method shown. In cells and extracts the contact can be indirect.

Take “DDX3X (endogenous, mouse primary pancreatic cancer cells) (from UniProt Q62167 1-662)”: the binding entry is “no binding”.
